Measured values as given in article doi:10.1101/2023.06.26.546506.
Read-outs that look alike come from different tables or passages of the source. These are yes or no findings as the source states them, for the method shown. Binding seen in cells or lysates may run through a third protein. Here binding means that the protein was enriched with, or labelled near, the bait; the list need not be complete.

Protein sequences, listed by entry. Tags and fused reporters are not part of them. Lines headed by an entry give the natural chain unless they say otherwise; changes in a name come on top.
UniProt P01583: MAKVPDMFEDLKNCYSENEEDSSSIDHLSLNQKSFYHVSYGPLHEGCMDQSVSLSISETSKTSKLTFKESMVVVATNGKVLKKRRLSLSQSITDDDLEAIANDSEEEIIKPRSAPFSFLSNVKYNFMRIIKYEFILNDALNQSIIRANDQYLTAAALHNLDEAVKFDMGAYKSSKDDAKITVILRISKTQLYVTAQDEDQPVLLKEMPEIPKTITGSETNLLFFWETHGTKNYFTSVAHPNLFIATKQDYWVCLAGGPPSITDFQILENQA
UniProt Q15596: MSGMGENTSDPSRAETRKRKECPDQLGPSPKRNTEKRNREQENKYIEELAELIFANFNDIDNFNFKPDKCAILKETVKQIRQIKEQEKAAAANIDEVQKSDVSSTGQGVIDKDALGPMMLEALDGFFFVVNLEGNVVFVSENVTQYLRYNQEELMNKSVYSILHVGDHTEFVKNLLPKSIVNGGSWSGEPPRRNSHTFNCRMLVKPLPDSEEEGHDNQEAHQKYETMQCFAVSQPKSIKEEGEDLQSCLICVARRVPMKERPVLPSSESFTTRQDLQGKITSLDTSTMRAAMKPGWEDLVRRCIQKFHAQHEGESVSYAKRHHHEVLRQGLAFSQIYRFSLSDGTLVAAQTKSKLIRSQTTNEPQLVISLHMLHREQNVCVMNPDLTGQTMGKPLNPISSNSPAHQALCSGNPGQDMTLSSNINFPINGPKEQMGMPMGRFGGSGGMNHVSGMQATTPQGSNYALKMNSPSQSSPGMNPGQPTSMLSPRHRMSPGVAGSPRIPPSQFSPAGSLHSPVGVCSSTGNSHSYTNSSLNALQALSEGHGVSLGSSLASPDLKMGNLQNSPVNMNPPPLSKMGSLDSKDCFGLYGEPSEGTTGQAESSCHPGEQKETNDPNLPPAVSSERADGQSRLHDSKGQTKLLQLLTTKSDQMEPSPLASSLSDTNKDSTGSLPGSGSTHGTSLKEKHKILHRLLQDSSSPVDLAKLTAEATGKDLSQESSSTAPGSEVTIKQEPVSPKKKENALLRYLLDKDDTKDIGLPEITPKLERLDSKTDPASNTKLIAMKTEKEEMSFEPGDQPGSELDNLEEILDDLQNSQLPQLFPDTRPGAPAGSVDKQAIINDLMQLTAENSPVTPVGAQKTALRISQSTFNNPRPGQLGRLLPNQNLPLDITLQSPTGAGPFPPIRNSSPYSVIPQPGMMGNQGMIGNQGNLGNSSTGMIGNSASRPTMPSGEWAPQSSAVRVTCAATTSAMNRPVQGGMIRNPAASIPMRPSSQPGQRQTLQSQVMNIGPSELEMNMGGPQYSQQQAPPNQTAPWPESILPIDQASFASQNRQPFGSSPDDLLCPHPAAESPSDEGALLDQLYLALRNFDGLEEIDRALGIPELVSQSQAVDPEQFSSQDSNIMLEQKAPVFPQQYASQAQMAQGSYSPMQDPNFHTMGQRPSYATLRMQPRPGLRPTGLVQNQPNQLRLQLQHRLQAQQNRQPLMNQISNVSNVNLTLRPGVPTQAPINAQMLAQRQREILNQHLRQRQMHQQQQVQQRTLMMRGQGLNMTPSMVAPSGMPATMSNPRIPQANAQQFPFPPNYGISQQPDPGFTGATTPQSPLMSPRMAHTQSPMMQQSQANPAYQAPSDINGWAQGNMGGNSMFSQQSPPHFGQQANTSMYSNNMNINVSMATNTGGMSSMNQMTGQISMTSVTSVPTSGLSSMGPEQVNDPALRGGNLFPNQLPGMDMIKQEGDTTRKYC
UniProt Q9Y6Q9: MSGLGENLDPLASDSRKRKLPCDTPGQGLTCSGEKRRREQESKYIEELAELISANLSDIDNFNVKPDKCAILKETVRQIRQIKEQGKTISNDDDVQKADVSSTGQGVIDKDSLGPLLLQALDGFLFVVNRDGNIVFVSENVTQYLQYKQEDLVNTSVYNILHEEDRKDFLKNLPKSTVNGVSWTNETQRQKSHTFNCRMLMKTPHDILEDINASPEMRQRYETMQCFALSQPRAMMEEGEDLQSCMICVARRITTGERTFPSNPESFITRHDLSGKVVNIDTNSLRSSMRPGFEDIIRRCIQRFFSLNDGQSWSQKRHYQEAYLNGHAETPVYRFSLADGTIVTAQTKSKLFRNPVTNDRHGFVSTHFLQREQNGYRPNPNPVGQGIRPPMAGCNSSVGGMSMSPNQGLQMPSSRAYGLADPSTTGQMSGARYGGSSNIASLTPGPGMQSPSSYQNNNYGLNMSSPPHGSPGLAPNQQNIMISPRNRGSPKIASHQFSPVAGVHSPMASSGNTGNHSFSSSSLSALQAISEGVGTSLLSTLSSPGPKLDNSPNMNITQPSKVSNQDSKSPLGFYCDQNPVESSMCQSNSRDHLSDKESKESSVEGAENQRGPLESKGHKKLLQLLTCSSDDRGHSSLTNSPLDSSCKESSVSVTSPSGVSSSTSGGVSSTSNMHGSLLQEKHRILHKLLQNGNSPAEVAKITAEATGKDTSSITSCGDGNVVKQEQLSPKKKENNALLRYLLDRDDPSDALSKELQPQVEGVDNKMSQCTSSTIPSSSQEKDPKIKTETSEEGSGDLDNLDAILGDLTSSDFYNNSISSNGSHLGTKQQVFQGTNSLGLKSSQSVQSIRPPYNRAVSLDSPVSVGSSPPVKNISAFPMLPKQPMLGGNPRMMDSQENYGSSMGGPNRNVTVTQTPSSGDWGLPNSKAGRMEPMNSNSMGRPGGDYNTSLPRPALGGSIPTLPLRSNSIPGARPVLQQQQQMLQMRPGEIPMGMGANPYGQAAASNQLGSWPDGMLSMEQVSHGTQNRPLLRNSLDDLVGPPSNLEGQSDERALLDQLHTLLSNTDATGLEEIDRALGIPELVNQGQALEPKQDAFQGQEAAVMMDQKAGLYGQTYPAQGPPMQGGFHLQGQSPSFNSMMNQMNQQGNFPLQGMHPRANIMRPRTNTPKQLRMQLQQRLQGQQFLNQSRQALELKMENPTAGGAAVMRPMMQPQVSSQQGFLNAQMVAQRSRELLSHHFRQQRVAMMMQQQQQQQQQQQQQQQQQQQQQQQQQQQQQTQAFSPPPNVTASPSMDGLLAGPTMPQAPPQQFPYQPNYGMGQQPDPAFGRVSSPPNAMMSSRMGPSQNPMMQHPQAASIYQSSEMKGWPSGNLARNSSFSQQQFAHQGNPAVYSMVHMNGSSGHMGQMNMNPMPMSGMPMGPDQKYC
UniProt Q09472: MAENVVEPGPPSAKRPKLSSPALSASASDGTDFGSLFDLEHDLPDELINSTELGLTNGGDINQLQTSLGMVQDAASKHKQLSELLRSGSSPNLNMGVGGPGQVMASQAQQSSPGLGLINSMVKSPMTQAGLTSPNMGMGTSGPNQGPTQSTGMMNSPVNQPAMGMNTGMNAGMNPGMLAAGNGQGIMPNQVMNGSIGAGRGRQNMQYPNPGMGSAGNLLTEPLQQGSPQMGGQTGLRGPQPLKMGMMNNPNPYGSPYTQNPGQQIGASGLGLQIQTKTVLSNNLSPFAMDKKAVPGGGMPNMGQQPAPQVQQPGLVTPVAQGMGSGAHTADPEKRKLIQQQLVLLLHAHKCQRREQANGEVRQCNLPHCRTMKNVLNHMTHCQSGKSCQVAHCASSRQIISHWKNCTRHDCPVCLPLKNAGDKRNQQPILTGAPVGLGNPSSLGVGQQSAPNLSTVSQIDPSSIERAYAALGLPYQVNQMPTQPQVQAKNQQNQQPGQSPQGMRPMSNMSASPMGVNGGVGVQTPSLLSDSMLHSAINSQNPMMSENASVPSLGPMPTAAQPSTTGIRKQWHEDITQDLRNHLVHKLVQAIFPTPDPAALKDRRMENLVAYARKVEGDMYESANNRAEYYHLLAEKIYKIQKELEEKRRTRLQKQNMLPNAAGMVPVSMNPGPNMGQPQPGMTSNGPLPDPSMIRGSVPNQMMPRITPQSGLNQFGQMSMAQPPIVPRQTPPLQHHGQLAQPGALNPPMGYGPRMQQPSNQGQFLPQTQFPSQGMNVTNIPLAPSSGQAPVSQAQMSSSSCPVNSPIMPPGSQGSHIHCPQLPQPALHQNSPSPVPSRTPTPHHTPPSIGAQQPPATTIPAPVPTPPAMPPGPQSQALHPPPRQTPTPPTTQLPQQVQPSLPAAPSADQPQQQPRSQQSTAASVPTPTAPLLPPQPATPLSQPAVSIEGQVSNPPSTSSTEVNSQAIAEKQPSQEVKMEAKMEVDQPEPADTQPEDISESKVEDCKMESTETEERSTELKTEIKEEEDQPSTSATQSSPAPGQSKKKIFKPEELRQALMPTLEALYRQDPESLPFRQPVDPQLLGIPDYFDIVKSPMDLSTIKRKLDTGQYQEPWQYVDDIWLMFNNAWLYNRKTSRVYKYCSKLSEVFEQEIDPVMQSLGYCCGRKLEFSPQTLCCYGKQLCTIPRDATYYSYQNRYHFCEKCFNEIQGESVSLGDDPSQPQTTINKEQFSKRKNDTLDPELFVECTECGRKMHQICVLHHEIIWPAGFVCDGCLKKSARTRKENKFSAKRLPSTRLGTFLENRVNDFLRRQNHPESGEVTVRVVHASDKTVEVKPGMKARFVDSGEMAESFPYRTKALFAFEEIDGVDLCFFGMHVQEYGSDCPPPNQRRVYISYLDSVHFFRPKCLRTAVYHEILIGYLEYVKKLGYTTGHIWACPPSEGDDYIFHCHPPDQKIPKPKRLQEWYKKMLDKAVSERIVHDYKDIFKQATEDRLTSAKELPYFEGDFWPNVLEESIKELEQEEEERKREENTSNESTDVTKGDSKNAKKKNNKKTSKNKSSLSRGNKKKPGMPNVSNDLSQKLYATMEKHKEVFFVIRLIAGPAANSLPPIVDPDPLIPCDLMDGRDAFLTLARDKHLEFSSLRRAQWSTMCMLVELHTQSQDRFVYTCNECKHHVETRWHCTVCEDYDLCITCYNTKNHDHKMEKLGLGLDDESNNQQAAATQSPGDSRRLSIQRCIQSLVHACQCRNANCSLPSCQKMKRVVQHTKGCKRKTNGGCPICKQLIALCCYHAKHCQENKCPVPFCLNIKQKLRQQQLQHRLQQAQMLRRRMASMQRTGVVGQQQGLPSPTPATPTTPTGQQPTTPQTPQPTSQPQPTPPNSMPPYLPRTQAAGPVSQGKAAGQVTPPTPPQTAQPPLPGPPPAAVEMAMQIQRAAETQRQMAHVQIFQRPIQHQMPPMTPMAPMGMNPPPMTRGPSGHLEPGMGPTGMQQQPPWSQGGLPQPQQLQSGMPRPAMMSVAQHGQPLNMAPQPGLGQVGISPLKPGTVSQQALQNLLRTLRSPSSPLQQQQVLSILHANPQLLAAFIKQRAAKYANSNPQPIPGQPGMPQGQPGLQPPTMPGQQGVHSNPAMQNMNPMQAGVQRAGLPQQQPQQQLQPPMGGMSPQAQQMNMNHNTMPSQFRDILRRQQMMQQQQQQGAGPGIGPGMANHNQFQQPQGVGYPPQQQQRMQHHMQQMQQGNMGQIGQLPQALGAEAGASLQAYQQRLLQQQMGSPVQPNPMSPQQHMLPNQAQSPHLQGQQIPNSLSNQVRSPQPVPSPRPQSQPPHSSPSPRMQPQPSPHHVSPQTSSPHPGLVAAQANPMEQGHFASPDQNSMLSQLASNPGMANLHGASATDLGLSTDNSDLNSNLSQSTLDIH
UniProt Q9H2F5: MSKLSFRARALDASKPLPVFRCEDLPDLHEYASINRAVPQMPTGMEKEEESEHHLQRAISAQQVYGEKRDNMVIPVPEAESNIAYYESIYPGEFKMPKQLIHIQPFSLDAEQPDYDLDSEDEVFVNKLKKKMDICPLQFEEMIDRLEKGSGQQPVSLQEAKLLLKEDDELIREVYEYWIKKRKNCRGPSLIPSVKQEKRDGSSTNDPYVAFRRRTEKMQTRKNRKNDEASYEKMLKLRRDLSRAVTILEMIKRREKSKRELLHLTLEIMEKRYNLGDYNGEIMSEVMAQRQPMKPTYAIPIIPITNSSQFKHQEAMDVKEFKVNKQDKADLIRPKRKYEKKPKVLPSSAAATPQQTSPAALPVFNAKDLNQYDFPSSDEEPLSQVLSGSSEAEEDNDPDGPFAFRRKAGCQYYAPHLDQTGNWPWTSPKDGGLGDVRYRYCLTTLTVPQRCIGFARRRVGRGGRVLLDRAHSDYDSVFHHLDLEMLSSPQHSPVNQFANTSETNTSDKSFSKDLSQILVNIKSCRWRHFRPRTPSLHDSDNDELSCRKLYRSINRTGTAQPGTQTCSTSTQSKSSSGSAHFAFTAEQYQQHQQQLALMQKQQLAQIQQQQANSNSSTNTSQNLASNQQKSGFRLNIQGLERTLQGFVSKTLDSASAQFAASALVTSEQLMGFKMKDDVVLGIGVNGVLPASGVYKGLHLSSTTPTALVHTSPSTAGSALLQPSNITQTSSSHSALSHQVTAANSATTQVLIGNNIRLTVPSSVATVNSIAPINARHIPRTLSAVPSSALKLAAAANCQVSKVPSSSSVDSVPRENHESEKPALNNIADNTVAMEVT

Columns and labels:
[1] = target: pro-IL-1α-TurboID (human) (UniProt P01583); assay: proximity labelling
[2] = target: pro-IL-1α-TurboID (human) (UniProt P01583); assay: proximity labelling; remark: listed apart in the source

binding [1]	binding [2]	Molecule
binds	–	EP400 (from UniProt Q96L91 1-3159)
binds	–	NCOA2 (from UniProt Q15596 1-1464)
binds	–	NCOA3 (from UniProt Q9Y6Q9 1-1424)
binds	–	SUPT20H (from UniProt Q8NEM7 1-779)
–	binds	ZZZ3 (protein, UniProt Q8IYH5 1-903) MAASRSTRVTRSTVGLNGLDESFCGRTLRNRSIAHPEEISSNSQVRSRSPKKRPEPVPIQKGNNNGRTTDLKQQSTRESWVSPRKRGLSSSEKDNIERQAIENCERRQTEPVSPVLKRIKRCLRSEAPNSSEEDSPIKSDKESVEQRSTVVDNDADFQGTKRACRCLILDDCEKREIKKVNVSEEGPLNSAVVEEITGYLAVNGVDDSDSAVINCDDCQPDGNTKQNSIGSYVLQEKSVAENGDTDTQTSMFLDSRKEDSYIDHKVPCTDSQVQVKLEDHKIVTACLPVEHVNQLTTEPATGPFSETQSSLRDSEEEVDVVGDSSASKEQCKENTNNELDTSLESMPASGEPEPSPVLDCVSAQMMSLSEPQEHRYTLRTSPRRAAPTRGSPTKNSSPYRENGQFEENNLSPNETNATVSDNVSQSPTNPGEISQNEKGICCDSQNNGSEGVSKPPSEARLNIGHLPSAKESASQHITEEEDDDPDVYYFESDHVALKHNKDYQRLLQTIAVLEAQRSQAVQDLESLGRHQREALKNPIGFVEKLQKKADIGLPYPQRVVQLPEIVWDQYTHSLGNFEREFKNRKRHTRRVKLVFDKVGLPARPKSPLDPKKDGESLSYSMLPLSDGPEGSSSRPQMIRGRLCDDTKPETFNQLWTVEEQKKLEQLLIKYPPEEVESRRWQKIADELGNRTAKQVASRVQKYFIKLTKAGIPVPGRTPNLYIYSKKSSTSRRQHPLNKHLFKPSTFMTSHEPPVYMDEDDDRSCFHSHMNTAVEDASDDESIPIMYRNLPEYKELLQFKKLKKQKLQQMQAESGFVQHVGFKCDNCGIEPIQGVRWHCQDCPPEMSLDFCDSCSDCLHETDIHKEDHQLEPIYRSETFLDRDYCVSQGTSYNYLDPNYFPANR

The remaining lines, values behind:

Molecule	binding [1]	binding [2]
DMAP1 (from UniProt Q9NPF5 1-467)	binds	–
EP300 (from UniProt Q09472 1-2414)	binds	–
EPC1 (from UniProt Q9H2F5 1-836)	binds	–
UBR2 (from UniProt Q8IWV8 1-1755)	binds	–
CRT2C (protein, UniProt Q53ET0 1-693) MATSGANGPGSATASASNPRKFSEKIALQKQRQAEETAAFEEVMMDIGSTRLQAQKLRLAYTRSSHYGGSLPNVNQIGSGLAEFQSPLHSPLDSSRSTRHHGLVERVQRDPRRMVSPLRRYTRHIDSSPYSPAYLSPPPESSWRRTMAWGNFPAEKGQLFRLPSALNRTSSDSALHTSVMNPSPQDTYPGPTPPSILPSRRGGILDGEMDPKVPAIEENLLDDKHLLKPWDAKKLSSSSSRPRSCEVPGINIFPSPDQPANVPVLPPAMNTGGSLPDLTNLHFPPPLPTPLDPEETAYPSLSGGNSTSNLTHTMTHLGISRGMGLGPGYDAPGLHSPLSHPSLQSSLSNPNLQASLSSPQPQLQGSHSHPSLPASSLARHVLPTTSLGHPSLSAPALSSSSSSSSTSSPVLGAPSYPASTPGASPHHRRVPLSPLSLLAGPADARRSQQQLPKQFSPTMSPTLSSITQGVPLDTSKLSTDQRLPPYPYSSPSLVLPTQPHTPKSLQQPGLPSQSCSVQSSGGQPPGRQSHYGTPYPPGPSGHGQQSYHRPMSDFNLGNLEQFSMESPSASLVLDPPGFSEGPGFLGGEGPMGGPQDPHTFNHQNLTHCSRHGSGPNIILTGDSSPGFSKEIAAALAGVPGFEVSAAGLELGLGLEDELRMEPLGLEGLNMLSDPCALLPDPAVEESFRSDRLQ	–	binds
